# According to the supplement of paper PMC12067093, “Discovery and optimisation of a covalent ligand for TRIM25 and its application to targeted protein ubiquitination” (Chemical Science, 2025):
# The list shows a part of the results.
# Target: T1, FBXW4_P57775_167_RPLGVFAGHDEDVCHFVLANSHIVSAGGDGK (UniProt P57775)
# T1 sequence (whole entry): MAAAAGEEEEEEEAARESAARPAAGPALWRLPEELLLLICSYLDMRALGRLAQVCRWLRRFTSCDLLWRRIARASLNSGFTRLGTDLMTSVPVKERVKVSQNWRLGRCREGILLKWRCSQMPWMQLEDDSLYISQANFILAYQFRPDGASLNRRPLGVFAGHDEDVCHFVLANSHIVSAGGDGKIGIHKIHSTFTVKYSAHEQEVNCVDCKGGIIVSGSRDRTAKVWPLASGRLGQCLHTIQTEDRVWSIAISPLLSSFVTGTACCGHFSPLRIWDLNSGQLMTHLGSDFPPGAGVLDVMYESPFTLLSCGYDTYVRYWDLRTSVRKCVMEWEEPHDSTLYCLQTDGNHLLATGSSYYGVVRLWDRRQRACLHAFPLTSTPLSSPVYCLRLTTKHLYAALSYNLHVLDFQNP
# Assay: probe-labelled cysteine peptide fold change vs DMSO (competition) (log2 fold change); higher = less target engagement (more negative = stronger competition)
# Details: THP-1, incubation time: 4 h
# 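Further: competitive chemoproteomic profiling in live THP-1 cells with an iodoacetamide desthiobiotin (IA-DTB) probe, comparing probe-labelled peptide intensities in compound-treated cells against DMSO-treated controls.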
compound,measurement,setting,value
CC1Cc2ccccc2N1C(=O)C1CCCN(C(=O)CCl)C1 (mixture of isomers) [TRIM25 ligand 11 (diastereomer mixture)],probe-labelled cysteine peptide fold change,10 µM,0.16
same,probe-labelled cysteine peptide fold change,50 µM,0.0559
